Data from PubChem BioAssay AID2685 (National Center for Advancing Translational Sciences (NCATS), 2010).
The list shows a part of the results. The main result of the screen is listed elsewhere. These columns were measured beside it and carry no call. The list favours compounds with an active or inconclusive main result. The note in brackets gives the kind of curve behind each potency; many fits are weak.

Assay: qHTS Assay for Lipid Storage Modulators in Drosophila S3 Cells;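 on cell number change: cells counted by Cell Tracker Red CMTPX staining in the red channel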
Conditions: BODIPY lipid droplet fluorescence, 18-24 h; for cell number change: measured here: cell count max response, cells fed with added oleic acid
Outline: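 Drosophila S3 cells got compounds at several concentrations plus oleic acid (400 uM solution). Laser-scanning cytometry with 488 nm excitation read lipid droplets at 500-530 nm and cells at 575-640 nm. Percent activity was relative to 20 uM Triacsin C.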

[1] = measured here: lipid fluorescence (Fed channel) AC50, cells fed with added oleic acid
[2] = measured here: cell number channel AC50, cells fed with added oleic acid

SMILES | cell number change [%] | AC50 [1] | AC50 [2]
Cc1cc(S(=O)(=O)N2CCN(c3ccccc3F)CC2)ccc1-n1cnnn1 | 20.5 |  | 
COc1ccc(OC)c(C(=O)c2coc3ccc(O)cc23)c1 | -1.01 | 0.259 µM [rising, full curve, poor fit] | 
O=C(COc1ccccc1/C=C1\SC(=O)NC1=O)Nc1ccccc1 | -13.6 | 0.517 µM [falling, full curve] | 0.58 µM [falling, full curve]
Cc1onc(-c2ccccc2Cl)c1C(=O)NNC(=O)C1CCN(Cc2ccccc2)CC1 | -36.1 | 0.92 µM [falling, partial curve] | 0.731 µM [falling, partial curve]
Cc1ccc(O)c(C(=O)c2cnc3c(c2)c(C)nn3-c2ccccc2)c1 |  | 29.1 µM [rising, single point] | 
CC(C)(C)NC(=O)C(=O)NNC(=O)c1cccc(F)c1 | 1.72 |  | 1.3 µM [rising, full curve, poor fit]
Cc1cc(C)cc(N(CC(=O)N2CCN(Cc3ccccc3)CC2)S(=O)(=O)c2c(C)noc2C)c1 | 12 | 0.00461 µM [falling, full curve, poor fit] | 0.731 µM [falling, partial curve]
CC(C)(C)Sc1ccc(/C=N/O)cc1[N+](=O)[O-] | -45 |  | 14.6 µM [falling, single point]
CCC(NC(=O)c1ccccc1NC(=O)c1ccccc1)C(=O)O (stereo not drawn) | -78.4 | 20.6 µM [falling, single point] | 18.4 µM [falling, single point]
CCCOc1ccc2ccccc2c1/C=C1\SC(=O)NC1=O | -0.365 |  | 
Cc1cccc(NC(=O)c2sc3nc4c(c(-c5cccs5)c3c2N)CN(C)CC4)c1 | 171 | 18.4 µM [rising, partial curve] | 29.1 µM [rising, single point]
c1ccc2cc3c(NCCN4CCOCC4)ccnc3cc2c1 | -38.9 | 29.1 µM [falling, single point] | 29.1 µM [falling, partial curve, poor fit]
CSc1cc(C)[nH]c(=O)n1 | -63.3 | 29.1 µM [falling, single point] | 29.1 µM [falling, single point]
COc1ccccc1CN1CC(C(=O)NCc2nc3ccccc3n2C)CCC1=O (stereo not drawn) | -4.34 | 0.411 µM [rising, full curve, poor fit] | 
CCc1ccc(OCC(=O)Nc2cc(S(=O)(=O)CC)ccc2O)cc1 | -6.56 | 0.116 µM [falling, full curve, poor fit] | 
Cc1ccc(-n2c(C)cc3c2CCCC3=O)cc1 |  | 5.8 µM [falling, single point] | 6.51 µM [falling, single point]
CCCS(=O)(=O)N1CCCC(C(=O)N2CCC(Cc3ccccc3)CC2)C1 (stereo not drawn) |  |  | 2.91 µM [falling, partial curve]
CCCNC(=O)NCCc1ccncc1 | 10.4 | 16.4 µM [rising, single point] | 
CCOC(=O)c1c(/N=C/N(C)C)sc(C=O)c1-c1ccccc1 | 31.8 | 18.4 µM [rising, single point] | 18.4 µM [rising, single point]
COc1ccc(CC(NC(C)=O)C(=O)NC2CCN(C(=O)Nc3ccc(C#N)cc3)CC2)cc1OC (stereo not drawn) | -36 | 4.61 µM [falling, full curve] | 1.64 µM [falling, full curve]

SMILES | cell number change [%] | AC50 [1] | AC50 [2]
CC(NC(=O)[C@H](Cc1c[nH]c2ccccc12)NC(=O)[C@@H]1Cc2ccccc2CN1)c1ccccc1 (stereo partly drawn) | 11.7 | 20.6 µM [rising, single point] | 
CCOCCCNC(=S)NCCNc1nc2c(C)cccc2cc1C#N |  | 0.291 µM [rising, partial curve, poor fit] | 
CCCCCCCC(=O)NC(Nc1ccc(S(N)(=O)=O)cc1)C(Cl)(Cl)Cl (stereo not drawn) | -8.32 | 0.184 µM [falling, full curve, poor fit] | 
C=CCSc1nnc(C)n1-c1ccc(Cl)cc1 | 4.3 |  | 
CSc1ccccc1OCc1cc(C(=O)NCC(C)(C)N2CCOCC2)no1 | -5.17 |  | 
O=C1NC(c2cccs2)Nc2sc3c(c21)CCCC3 (stereo not drawn) | 55.6 | 0.366 µM [falling, single point] | 13 µM [rising, single point]
Cc1ccc(N2Cc3ccccc3OC(C)C2=O)cc1 (stereo not drawn) | 2.7 |  | 
CC(C)c1ccc(N(C(=O)c2snc(C(N)=O)c2N)C(C(=O)NCC2CCCO2)c2ccc(N(C)C)cc2)cc1 (stereo not drawn) | -2.02 | 0.58 µM [rising, single point] | 
Cc1nn(Cc2c(F)c(F)c(F)c(F)c2F)c(C)c1NC(=O)c1ccc(COc2ccc(F)cc2)o1 |  | 1.84 µM [rising, partial curve] | 
O=[N+]([O-])c1cc(F)c2cccnc2c1O | 5.08 | 29.1 µM [rising, single point] | 
CCN(CC)CCN(C(=O)c1ccc2c(c1)OCCO2)c1nc2c(Cl)cccc2s1 | 37.8 | 20 µM [rising, partial curve] | 25.1 µM [rising, single point]
COc1cc(NC2c3ccccc3C(=O)N2Cc2ccc3c(c2)OCO3)cc(OC)c1 (stereo not drawn) | 32.1 | 16.4 µM [rising, partial curve] | 20.6 µM [rising, single point]
Cc1cc(=O)oc2cc(OC(C)C(=O)Nc3ccc(C(N)=O)cc3)ccc12 (stereo not drawn) | 1.13 | 20.6 µM [rising, single point] | 
Cn1c(-n2c(CCCN3C(=O)c4ccccc4C3=O)nc3ccccc3c2=O)nc2ccccc21 | 0.136 | 0.00517 µM [falling, full curve, poor fit] | 
O=C(CN1CCN(c2ccccc2O)CC1)Nc1ccnn1C1CCCC1 | -9.23 | 3.26 µM [falling, single point] | 
COCC(C)n1c(C)cc(C(=O)CSc2cc(C)c3ccccc3n2)c1C (stereo not drawn) | 43.8 | 11.6 µM [rising, partial curve] | 8.2 µM [rising, partial curve]
COc1ccc(NC(=O)CN(C)C(=O)CCCc2nc3ccccc3s2)cc1 |  | 29.1 µM [rising, single point] | 
COc1ccc(N2CCN(C(c3cccs3)C(C)NC(=O)c3ccc4c(c3)OCO4)CC2)cc1 (stereo not drawn) | 37.9 |  | 4.11 µM [rising, partial curve]
Cc1ccc(NCC(=O)N/N=C/c2cccc(Br)c2)cc1 |  |  | 6.51 µM [falling, single point]
Cc1nn(C)cc1CNCc1ccc(OCC(O)CN(C)Cc2ccccc2)cc1 (stereo not drawn) | -13.7 | 14.6 µM [falling, single point] | 

SMILES | cell number change [%] | AC50 [1] | AC50 [2]
COc1ccnc(Oc2ccc(F)cc2)c1C(=O)N/C=N/OCc1c(Cl)cccc1Cl | 128 | 4.61 µM [rising, partial curve] | 0.651 µM [rising, single point]
C/C(=N\N=c1/sc2ccccc2n1C)c1ccccn1 | -3.75 |  | 
COc1cc(CNc2ccccc2SC)ccc1O | 8.77 | 0.116 µM [falling, full curve, poor fit] | 
O=C(c1ccccc1F)N1CCc2ccccc21 | -0.558 |  | 
CC#CC[N+](C)(C)CCCCCCCC | 32.3 | 0.731 µM [rising, full curve, poor fit] | 0.82 µM [rising, full curve, poor fit]
CCOc1ccc(NC(=O)CSc2nc3ccccc3nc2N2CCCC2)cc1 | -17 |  | 
Cc1nnc(SCCn2c(Br)nc3c2c(=O)[nH]c(=O)n3C)s1 | 18.5 | 0.82 µM [falling, full curve, poor fit] | 
CCOC(=O)C1(CC2CCCCO2)CCN(C(=O)Nc2cccc(SC)c2)CC1 (stereo not drawn) | -18.9 | 18.4 µM [falling, partial curve, poor fit] | 
CC(C)NC(=O)COC(=O)c1cc(=O)[nH]c2ccccc12 | 18.6 | 29.1 µM [rising, single point] | 
COc1ccc(C(=O)Nc2ccccc2C(=O)NC(Cc2ccc(O)cc2)C(=O)NNC(=O)c2ccncc2)cc1 (stereo not drawn) | 33.1 | 0.651 µM [rising, full curve] | 2.59 µM [rising, partial curve]
CC(C)(C)NC(=O)/C=C/c1cccs1 | 16.6 |  | 
COc1ccc(C(=O)NC(=S)Nc2nc(-c3ccc(OC)c(Br)c3)cs2)cc1Br | 0.885 | 6.51 µM [rising, partial curve] | 
COC(=O)c1cccc(C23CC4(C2)[C@H](CN(Cc2ccc(-c5ccccc5)cc2)[C@@H]4c2ccccc2)C3c2ccccc2)c1 (stereo partly drawn) | -63.8 | 1.3 µM [falling, full curve] | 1.03 µM [falling, full curve]
CCCCN(CC)c1nc(-c2ccncc2)nc2ccccc12 | -58.9 | 0.231 µM [rising, full curve] | 29.1 µM [falling, single point]
COc1ccc(C(=O)NC(=S)NNC(=O)c2cnccn2)cc1 |  | 0.291 µM [falling, full curve] | 
O=C1OC(c2ccccc2)/C(=C(/O)c2ccc(Cl)cc2)C1=O (stereo not drawn) | -43.7 |  | 16.4 µM [falling, single point]
O=C(/C=C/c1ccc(Br)o1)Nc1nccs1 | -22 |  | 
CC(C)(C)NC(=O)CSc1ccc(C(C)(C)C)cc1 | -36.1 | 20.6 µM [falling, partial curve] | 20.6 µM [falling, single point]

Whole records from above. Order of values: cell number change [%]	AC50 [1]	AC50 [2]
COc1ccnc(Oc2ccc(F)cc2)c1C(=O)N/C=N/OCc1c(Cl)cccc1Cl as listed: 128	4.61 µM [rising, partial curve]	0.651 µM [rising, single point]
COc1ccc(C(=O)Nc2ccccc2C(=O)NC(Cc2ccc(O)cc2)C(=O)NNC(=O)c2ccncc2)cc1 (stereo not drawn) as listed: 33.1	0.651 µM [rising, full curve]	2.59 µM [rising, partial curve]
